40 targets from the supplement of paper PMC10849652 can be followed below.

Chains of the proteins cited; added tags and fusions are not shown. Lines headed by an entry give the natural chain unless they say otherwise; changes in a name come on top.
UniProt P61081: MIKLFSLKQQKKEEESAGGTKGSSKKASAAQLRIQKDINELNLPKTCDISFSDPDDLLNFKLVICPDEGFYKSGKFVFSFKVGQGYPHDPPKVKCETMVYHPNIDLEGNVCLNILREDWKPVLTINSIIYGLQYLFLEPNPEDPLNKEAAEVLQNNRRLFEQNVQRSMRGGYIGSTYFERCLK
UniProt P0DPH7, whole entry, looked up: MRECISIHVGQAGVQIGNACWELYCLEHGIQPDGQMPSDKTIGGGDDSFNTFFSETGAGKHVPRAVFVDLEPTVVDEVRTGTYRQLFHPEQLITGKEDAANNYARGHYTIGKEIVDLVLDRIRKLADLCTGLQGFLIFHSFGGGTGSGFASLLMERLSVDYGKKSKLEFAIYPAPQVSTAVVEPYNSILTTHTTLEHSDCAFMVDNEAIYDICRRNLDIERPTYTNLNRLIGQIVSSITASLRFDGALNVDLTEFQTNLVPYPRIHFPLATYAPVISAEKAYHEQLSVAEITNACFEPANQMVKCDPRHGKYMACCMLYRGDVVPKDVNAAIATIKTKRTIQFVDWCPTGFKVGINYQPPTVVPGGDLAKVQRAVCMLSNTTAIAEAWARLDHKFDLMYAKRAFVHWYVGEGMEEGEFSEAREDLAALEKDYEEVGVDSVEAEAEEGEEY
UniProt Q12792, whole entry, looked up: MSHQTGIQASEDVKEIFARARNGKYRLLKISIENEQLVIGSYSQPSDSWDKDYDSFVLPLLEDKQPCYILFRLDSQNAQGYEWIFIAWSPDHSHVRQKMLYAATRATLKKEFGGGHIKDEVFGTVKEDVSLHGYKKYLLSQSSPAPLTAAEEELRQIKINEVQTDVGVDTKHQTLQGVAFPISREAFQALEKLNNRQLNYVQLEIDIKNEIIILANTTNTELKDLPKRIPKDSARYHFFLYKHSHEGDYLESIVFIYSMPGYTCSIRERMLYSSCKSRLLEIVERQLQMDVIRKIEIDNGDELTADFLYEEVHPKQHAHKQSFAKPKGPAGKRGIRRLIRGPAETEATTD
UniProt P61088: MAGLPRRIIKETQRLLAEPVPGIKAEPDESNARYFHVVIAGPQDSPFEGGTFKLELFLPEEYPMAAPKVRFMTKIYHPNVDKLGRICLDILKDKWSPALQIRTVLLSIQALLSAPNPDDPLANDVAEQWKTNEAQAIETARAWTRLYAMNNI
UniProt Q15631: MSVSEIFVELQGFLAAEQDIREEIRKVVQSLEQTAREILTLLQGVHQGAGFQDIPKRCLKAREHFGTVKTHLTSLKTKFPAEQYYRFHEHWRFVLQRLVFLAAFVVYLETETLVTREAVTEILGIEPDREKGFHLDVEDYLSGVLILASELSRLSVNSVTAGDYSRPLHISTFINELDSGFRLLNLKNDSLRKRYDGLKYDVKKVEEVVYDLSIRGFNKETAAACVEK
UniProt P61077: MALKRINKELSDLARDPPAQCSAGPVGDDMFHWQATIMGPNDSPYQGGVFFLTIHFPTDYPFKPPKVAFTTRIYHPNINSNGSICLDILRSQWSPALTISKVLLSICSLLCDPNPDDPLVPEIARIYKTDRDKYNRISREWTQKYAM
UniProt Q6DKK2: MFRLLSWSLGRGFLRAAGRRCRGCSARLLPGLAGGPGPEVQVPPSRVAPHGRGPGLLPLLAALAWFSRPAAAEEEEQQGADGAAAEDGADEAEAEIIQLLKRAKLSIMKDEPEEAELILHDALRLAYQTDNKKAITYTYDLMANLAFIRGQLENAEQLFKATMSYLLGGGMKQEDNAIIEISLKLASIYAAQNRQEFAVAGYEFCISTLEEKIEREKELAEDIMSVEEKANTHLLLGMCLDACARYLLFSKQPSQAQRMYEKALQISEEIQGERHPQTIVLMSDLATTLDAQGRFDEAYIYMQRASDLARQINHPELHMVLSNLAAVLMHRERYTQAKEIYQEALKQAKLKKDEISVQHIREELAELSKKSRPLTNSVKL
UniProt Q9BUF5, whole entry, looked up: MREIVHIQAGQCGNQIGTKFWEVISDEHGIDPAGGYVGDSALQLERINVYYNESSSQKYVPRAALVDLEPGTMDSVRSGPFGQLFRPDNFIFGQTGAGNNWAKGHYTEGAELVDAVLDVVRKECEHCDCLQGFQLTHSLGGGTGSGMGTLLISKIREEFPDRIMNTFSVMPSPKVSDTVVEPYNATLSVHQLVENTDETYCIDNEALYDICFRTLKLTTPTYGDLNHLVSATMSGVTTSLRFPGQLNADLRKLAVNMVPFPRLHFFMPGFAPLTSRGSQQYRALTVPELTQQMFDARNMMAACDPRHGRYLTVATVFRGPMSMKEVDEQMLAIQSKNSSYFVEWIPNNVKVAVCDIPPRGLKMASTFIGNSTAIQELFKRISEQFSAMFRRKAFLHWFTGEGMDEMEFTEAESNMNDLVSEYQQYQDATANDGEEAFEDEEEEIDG
UniProt P83876: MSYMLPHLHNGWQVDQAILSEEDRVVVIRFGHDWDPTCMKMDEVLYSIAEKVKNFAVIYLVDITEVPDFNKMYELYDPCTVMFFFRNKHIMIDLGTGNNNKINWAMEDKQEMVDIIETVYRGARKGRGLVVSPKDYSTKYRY
UniProt Q6IBS0: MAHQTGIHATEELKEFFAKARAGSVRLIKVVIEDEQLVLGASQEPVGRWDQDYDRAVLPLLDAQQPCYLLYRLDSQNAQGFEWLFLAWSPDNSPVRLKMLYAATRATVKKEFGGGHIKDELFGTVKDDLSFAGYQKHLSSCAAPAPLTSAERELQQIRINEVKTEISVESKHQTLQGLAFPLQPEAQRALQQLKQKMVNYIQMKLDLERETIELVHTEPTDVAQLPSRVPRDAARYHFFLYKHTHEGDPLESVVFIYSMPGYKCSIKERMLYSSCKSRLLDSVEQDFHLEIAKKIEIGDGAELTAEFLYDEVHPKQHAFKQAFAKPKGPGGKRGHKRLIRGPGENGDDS
UniProt Q9BVA1, whole entry, looked up: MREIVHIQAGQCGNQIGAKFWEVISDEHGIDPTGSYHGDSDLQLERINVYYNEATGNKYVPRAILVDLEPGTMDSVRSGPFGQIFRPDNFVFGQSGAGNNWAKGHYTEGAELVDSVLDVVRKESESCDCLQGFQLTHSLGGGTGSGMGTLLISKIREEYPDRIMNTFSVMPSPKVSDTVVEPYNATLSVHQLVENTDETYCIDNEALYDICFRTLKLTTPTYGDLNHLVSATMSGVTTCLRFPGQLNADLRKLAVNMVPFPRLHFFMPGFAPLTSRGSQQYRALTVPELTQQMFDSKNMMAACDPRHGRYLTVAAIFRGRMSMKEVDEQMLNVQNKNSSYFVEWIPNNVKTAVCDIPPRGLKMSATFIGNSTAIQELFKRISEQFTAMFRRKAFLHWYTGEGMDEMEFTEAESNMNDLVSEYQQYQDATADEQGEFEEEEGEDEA
UniProt Q9NUQ3: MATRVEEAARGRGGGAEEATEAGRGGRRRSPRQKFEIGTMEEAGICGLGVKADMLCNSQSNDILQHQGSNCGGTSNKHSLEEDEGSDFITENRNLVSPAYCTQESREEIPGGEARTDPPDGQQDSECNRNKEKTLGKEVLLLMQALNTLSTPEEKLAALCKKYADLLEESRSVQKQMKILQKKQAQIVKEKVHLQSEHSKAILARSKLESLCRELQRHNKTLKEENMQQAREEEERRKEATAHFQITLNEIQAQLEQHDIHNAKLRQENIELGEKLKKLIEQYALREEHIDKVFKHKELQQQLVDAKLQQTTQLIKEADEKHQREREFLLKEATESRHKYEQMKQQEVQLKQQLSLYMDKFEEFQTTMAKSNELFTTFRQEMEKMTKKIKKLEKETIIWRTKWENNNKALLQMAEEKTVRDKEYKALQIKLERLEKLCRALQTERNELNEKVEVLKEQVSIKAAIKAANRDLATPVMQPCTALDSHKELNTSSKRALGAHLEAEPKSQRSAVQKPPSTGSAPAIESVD
UniProt Q96J42: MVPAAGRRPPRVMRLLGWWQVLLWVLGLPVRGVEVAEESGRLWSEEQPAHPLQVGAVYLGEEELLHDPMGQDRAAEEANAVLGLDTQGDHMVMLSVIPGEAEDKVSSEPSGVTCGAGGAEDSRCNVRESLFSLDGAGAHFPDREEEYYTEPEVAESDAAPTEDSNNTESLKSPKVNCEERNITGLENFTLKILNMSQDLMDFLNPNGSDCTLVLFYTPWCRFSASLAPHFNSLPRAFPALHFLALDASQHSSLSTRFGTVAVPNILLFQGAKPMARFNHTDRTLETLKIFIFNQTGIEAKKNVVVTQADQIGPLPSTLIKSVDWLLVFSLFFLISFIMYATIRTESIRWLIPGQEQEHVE
UniProt Q9BTX7: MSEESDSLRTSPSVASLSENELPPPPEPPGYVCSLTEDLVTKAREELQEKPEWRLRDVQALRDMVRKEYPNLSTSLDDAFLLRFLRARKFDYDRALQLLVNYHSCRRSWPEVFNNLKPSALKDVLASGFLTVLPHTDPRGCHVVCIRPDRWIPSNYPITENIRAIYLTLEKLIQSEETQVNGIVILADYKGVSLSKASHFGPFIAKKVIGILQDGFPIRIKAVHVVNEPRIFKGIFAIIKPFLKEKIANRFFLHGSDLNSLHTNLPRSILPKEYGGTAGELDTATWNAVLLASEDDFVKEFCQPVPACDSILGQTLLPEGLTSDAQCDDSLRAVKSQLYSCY
UniProt Q99614: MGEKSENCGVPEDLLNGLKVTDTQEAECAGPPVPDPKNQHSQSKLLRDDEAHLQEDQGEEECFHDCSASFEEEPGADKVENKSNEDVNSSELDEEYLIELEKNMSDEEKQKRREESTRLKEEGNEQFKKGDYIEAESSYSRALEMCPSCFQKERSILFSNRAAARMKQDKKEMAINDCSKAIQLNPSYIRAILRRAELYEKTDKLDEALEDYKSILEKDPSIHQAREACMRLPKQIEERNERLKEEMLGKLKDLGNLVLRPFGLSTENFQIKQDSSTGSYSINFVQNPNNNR
UniProt Q13630: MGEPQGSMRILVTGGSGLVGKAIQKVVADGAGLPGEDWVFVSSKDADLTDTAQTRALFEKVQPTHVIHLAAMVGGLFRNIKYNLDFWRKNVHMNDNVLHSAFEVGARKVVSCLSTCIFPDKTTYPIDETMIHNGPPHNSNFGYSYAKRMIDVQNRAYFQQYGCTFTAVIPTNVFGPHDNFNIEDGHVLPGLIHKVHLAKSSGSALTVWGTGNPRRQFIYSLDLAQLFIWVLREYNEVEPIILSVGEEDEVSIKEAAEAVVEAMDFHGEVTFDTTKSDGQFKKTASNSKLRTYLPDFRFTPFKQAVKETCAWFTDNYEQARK
UniProt Q86TV6: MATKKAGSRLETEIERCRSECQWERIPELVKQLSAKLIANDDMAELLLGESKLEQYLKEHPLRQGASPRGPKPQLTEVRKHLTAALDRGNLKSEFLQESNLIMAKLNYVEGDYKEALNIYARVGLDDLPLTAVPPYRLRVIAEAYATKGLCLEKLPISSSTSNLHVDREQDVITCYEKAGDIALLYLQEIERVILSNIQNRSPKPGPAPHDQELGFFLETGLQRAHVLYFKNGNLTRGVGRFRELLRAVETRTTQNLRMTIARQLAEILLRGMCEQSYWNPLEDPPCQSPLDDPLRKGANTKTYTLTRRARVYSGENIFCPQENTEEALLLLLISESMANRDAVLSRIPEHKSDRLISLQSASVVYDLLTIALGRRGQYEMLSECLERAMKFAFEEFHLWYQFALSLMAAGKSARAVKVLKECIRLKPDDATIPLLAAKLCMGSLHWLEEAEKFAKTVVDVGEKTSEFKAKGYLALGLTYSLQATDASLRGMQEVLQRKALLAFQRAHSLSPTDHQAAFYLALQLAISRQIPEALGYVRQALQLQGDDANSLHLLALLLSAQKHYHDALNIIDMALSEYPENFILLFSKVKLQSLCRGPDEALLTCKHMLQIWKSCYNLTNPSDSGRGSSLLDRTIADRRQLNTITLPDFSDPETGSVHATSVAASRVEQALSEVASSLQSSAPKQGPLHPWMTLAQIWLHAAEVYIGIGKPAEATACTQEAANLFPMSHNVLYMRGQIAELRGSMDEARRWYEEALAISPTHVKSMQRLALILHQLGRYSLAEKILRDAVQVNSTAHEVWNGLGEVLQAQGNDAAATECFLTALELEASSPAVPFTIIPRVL
UniProt P49459, whole entry, looked up: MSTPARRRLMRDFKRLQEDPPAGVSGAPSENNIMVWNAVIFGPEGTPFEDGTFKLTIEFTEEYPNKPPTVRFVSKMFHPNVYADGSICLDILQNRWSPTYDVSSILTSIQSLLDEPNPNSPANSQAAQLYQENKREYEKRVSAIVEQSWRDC
UniProt P68363, whole entry, looked up: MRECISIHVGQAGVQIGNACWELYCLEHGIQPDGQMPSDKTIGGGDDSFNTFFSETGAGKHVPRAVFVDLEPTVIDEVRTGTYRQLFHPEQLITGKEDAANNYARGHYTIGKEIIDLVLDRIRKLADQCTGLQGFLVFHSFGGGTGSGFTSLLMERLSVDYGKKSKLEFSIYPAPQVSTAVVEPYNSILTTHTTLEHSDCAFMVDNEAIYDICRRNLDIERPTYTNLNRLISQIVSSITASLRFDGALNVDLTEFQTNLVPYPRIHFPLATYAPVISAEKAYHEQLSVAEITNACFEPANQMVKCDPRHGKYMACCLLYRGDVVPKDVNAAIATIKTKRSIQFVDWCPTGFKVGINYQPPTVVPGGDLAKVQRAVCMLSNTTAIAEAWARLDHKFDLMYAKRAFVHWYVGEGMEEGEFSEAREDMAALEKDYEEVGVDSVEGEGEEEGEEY

The list shows a part of the results.

Compound in this assay: CNC(=O)c1ccc(Nc2ncc(C(F)(F)F)c(NCc3nccnc3N(C)S(C)(=O)=O)n2)cc1 [defactinib]
The experiment in a line: log2 fold change, soluble protein after heating vs DMSO (PISA); higher = thermal stabilisation; K562 cells, 10 uM, 30 min; active = over 0.2 and 3.5 SD of the protein, either way, in both replicates (recomputed). The method in brief:
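Soluble protein was quantified by TMTpro 16plex LC-MS/MS after channel sums were equalised. It was obtained as the supernatant after 21,000xg for 90 min from pooled aliquots of K562 cells (2×10^6 cells/mL, 10 μM compound, 30 min) heated for 3 min across 48°C-58°C and extracted in PBS with 0.5% NP-40 at 4°C. Thermal stability values are relative to control samples and come from duplicates. They are given as log2 fold changes.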
For the target TUBGCP2 isoform 4 (UniProt Q9BSJ2), the log2 fold change was inactive: 0.06. For the target UBE2L3 isoform 3 (UniProt P68036), the log2 fold change was inactive: 0.004. With UBE2M (UniProt P61081), the log2 fold change is inactive: -0.087. As to U2SURP (UniProt O15042), the log2 fold change was inactive: -0.279. Turning to UAP1L1 (UniProt Q3KQV9), the log2 fold change was inactive: -0.026. Then TUBA3C (UniProt P0DPH7), with inactive: -0.029. Consider TWF1 (UniProt Q12792), for which the log2 fold change is inactive: -0.103. As for TXNDC16 (UniProt Q9P2K2), the log2 fold change was inactive: -0.038.

With UBE2N (UniProt P61088), the log2 fold change was inactive: 0.024. The result for TSPAN3 (UniProt O60637) reads inactive: 0.047; that for UBA5 (UniProt Q9GZZ9), inactive: 0.003; that for TUBB4A (UniProt M0QYM7), inactive: 0.17.

Turning to UBE2Z (UniProt Q9H832), the log2 fold change is inactive: -0.042. The result for TTN isoform 12 (UniProt Q8WZ42) reads inactive: 0.03; that for TUBB1 (UniProt Q9H4B7), inactive: -0.025; that for TSN (UniProt Q15631), inactive: -0.005. Turning to TYW3 (UniProt Q6IPR3), the log2 fold change was inactive: 0.057. The result for UBE2D3 isoform 3 (UniProt P61077) reads inactive: -0.106; that for UBE2K (UniProt P61086), inactive: -0.03. With TTC19 (UniProt Q6DKK2), the log2 fold change was inactive: -0.034. In the case of UAP1 (UniProt Q16222), the log2 fold change was inactive: 0.011. Then TUBB6 (UniProt Q9BUF5), with inactive: -0.012; and TXNL4A (UniProt P83876), with inactive: 0.03; and TSR1 (UniProt Q2NL82), with inactive: 0.065. The result for TUBB6 (UniProt K7ES63) reads inactive: 0.104. The result for TSPAN14 (UniProt Q8NG11) reads inactive: -0.006; that for TWF2 (UniProt Q6IBS0), inactive: -0.014; that for TUBB2B (UniProt Q9BVA1), inactive: 0.026. Turning to TXLNG (UniProt Q9NUQ3), the log2 fold change was inactive: -0.024. Then TXNDC15 (UniProt Q96J42), with inactive: 0.039; and TTPAL (UniProt Q9BTX7), with inactive: -0.048; and TTC1 (UniProt Q99614), with inactive: -0.012. Then TSTA3 (UniProt Q13630), with inactive: -0.006; and TTC7B isoform 2 (UniProt Q86TV6), with inactive: 0.108. The result for TUBE1 (UniProt Q9UJT0) reads inactive: 0.037.

For UBE2F isoform 2 (UniProt Q969M7), the log2 fold change is inactive: -0.012. Regarding UBE2A (UniProt P49459), the log2 fold change is inactive: 0.01. Then TTC27 (UniProt Q6P3X3), with inactive: -0.093; and TTC13 (UniProt Q8NBP0), with inactive: -0.147; and TUBA1B (UniProt P68363), with inactive: -0.005.
